Measured values taken from patent publication US20040180811A1.
No constants are given. Whether binding was seen depends on the method and setting. For part of these data: Binding seen in cells or lysates may run through a third protein. Some entries that bind do so weakly or less than the wild type. Blank lines part the entries; values can stand above or below the substance they belong to.

Protein sequences, listed by entry. Tags and fused reporters are not part of them. Lines headed by an entry give the natural chain unless they say otherwise; changes in a name come on top. Residues count along the entry.
UniProt Q6WCQ1: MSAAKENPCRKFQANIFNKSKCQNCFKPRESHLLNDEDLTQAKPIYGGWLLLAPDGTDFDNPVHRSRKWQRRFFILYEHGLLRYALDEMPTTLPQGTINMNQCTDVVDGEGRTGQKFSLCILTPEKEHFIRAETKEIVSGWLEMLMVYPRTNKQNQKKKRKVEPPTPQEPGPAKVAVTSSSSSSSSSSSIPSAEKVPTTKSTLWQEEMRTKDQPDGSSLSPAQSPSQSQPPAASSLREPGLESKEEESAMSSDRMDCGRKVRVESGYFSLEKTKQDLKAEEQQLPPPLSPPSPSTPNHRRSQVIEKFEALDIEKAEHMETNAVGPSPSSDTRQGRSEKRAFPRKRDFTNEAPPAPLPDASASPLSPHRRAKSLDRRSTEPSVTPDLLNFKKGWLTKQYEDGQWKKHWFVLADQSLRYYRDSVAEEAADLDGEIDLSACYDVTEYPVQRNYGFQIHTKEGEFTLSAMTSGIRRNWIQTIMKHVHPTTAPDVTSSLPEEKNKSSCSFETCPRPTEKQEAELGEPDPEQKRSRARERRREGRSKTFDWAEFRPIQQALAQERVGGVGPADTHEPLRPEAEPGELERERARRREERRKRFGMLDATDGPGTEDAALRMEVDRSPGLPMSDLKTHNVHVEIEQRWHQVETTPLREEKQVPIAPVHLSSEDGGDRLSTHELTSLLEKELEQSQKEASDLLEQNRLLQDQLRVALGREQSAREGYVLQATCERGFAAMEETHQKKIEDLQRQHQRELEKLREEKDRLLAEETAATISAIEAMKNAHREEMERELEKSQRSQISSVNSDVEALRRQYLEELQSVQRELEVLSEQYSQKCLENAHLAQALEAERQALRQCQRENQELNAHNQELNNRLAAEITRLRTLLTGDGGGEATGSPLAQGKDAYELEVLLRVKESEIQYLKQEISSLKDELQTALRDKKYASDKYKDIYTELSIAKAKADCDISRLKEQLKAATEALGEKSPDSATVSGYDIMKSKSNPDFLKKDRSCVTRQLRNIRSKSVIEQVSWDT
UniProt P61586: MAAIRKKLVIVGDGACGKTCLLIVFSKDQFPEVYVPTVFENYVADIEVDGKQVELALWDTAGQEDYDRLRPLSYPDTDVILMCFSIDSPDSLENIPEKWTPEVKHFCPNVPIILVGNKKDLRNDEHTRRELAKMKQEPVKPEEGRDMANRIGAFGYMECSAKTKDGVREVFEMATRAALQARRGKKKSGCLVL
UniProt O14974: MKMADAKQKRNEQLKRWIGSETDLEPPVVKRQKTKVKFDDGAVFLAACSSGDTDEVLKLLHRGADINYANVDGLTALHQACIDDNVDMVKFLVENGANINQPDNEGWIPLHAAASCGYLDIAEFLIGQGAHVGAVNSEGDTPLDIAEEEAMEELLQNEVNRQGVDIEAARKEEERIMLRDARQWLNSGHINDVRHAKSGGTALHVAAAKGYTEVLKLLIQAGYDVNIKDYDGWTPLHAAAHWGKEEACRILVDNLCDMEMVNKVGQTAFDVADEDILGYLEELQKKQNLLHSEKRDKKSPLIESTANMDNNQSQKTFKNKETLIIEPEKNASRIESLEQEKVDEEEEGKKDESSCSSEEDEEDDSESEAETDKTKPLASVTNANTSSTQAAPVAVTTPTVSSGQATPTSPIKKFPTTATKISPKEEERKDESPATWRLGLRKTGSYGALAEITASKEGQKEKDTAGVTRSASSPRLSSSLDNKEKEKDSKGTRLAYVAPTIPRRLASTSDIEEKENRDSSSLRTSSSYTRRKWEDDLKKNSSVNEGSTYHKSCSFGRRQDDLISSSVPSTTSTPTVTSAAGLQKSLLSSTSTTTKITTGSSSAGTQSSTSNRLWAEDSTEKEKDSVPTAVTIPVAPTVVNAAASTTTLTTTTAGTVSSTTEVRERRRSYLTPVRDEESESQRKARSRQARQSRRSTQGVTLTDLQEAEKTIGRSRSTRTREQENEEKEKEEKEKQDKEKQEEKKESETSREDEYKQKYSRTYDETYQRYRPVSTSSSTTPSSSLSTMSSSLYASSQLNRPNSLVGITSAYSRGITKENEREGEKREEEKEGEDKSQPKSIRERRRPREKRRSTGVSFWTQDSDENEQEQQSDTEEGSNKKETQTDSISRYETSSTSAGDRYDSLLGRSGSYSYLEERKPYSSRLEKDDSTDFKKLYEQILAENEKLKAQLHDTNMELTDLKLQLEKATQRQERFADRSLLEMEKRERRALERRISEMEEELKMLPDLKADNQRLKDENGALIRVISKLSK
UniProt Q8C6B2, residues 1-99: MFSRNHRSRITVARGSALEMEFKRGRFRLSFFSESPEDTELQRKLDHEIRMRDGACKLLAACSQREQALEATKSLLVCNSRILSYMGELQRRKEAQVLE

Legend:
[1] = molecular target: GST-M-RIP545-823 (M-RIP RhoA-binding domain) (human) (UniProt Q6WCQ1); assay: GST pull-down from lysate of COS1 cells transfected with Flag-RhoA, anti-Flag immunoblot
[2] = molecular target: GST-M-RIP545-878 (RhoA-binding domain plus the remaining carboxy-terminus of CC2) (human) (UniProt Q6WCQ1); assay: as above
[3] = molecular target: 6×his RhoA loaded with GDPβS (UniProt P61586); assay: purified protein interaction, GST fusions on glutathione-agarose beads, anti-RhoA immunoblot
[4] = molecular target: 6×his RhoA loaded with GTPγS (UniProt P61586); assay: as above
[5] = molecular target: GFP-MBS (full-length human MBS fused to GFP) (human) (UniProt O14974); assay: GST pull-down from lysate of transfected COS1 cells, anti-MBS immunoblot
[6] = molecular target: Myosin binding subunit (MBS) of myosin phosphatase, endogenous in human vascular smooth muscle cells (human) (UniProt O14974); assay: GST pull-down from vascular smooth muscle cell lysate, anti-MBS immunoblot
[7] = molecular target: Full-length M-RIP with an amino-terminal Flag tag (human) (UniProt Q6WCQ1); assay: GST pull-down from COS-7 lysate overexpressing Flag-M-RIP, anti-Flag immunoblot
[8] = molecular target: Full-length M-RIP with an amino-terminal Flag tag (human) (UniProt Q6WCQ1); assay: 6×his RhoA incubated with COS1 lysate containing Flag M-RIP, Ni-NTA precipitation, anti-Flag immunoblot

Substance: GST-MBSLZ (amino acids 847-1030 of MBS, includes the leucine zipper domain) (from UniProt O14974 847-1030)
- binding [7]: binds

Substance: 6×his RhoA loaded with GTPγS (from UniProt P61586 1-193) (enzyme)
- binding [8]: binds

Substance: 6×his RhoA loaded with GDPβS (from UniProt P61586 1-193) (enzyme)
- binding [8]: binds

Continued, values first:

- binding [1]: binds
- binding [2]: binds
Substance: Flag-RhoA (wild-type) expressed in COS1 cells (from UniProt P61586 1-193) (enzyme)

- binding [3]: binds
- binding [4]: binds
Substance: GST-M-RIP545-823 (M-RIP RhoA-binding domain) (from UniProt Q6WCQ1 546-824)

- binding [4]: binds
Substance: GST-Rhotekin Rho-binding domain (amino acids 1-99 of mouse Rhotekin) (from UniProt Q8C6B2 1-99)

- binding [5]: binds
- binding [6]: binds
- binding [3]: binds
- binding [4]: binds
Substance: GST-M-RIP545-878 (RhoA-binding domain plus the remaining carboxy-terminus of CC2) (from UniProt Q6WCQ1 546-879)
